Laboratory results reported in PMC8732845.
No constants are given. Whether binding was seen depends on the method and setting. Binding can be weak; no strength is given. For part of these data: Binding seen in cells or lysates may run through a third protein. Blank lines part the entries; values can stand above or below the substance they belong to.

Chains of the proteins cited; added tags and fusions are not shown. Lines headed by an entry give the natural chain unless they say otherwise; changes in a name come on top.
UniProt P28566: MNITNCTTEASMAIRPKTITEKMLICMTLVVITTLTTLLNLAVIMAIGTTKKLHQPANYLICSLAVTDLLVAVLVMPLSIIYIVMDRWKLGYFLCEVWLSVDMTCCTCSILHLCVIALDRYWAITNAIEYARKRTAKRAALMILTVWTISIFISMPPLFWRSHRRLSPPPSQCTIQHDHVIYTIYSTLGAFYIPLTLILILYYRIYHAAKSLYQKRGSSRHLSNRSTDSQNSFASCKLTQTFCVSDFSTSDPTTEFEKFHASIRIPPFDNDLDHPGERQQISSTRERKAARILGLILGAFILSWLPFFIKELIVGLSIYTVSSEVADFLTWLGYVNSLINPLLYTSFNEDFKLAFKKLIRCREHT
UniProt P16870: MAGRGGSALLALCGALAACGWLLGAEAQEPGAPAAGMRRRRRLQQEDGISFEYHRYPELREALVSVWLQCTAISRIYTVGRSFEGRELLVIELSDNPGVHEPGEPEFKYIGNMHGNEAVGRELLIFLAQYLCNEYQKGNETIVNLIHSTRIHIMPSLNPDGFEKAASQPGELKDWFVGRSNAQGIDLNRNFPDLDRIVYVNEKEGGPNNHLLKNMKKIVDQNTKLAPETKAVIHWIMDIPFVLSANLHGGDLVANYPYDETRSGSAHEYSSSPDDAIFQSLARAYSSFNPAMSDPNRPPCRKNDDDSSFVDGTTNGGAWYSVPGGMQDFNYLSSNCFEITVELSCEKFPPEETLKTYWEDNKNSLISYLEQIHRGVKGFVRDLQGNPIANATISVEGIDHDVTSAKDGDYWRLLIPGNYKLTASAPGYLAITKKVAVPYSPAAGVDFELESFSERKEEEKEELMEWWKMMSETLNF
UniProt Q00493: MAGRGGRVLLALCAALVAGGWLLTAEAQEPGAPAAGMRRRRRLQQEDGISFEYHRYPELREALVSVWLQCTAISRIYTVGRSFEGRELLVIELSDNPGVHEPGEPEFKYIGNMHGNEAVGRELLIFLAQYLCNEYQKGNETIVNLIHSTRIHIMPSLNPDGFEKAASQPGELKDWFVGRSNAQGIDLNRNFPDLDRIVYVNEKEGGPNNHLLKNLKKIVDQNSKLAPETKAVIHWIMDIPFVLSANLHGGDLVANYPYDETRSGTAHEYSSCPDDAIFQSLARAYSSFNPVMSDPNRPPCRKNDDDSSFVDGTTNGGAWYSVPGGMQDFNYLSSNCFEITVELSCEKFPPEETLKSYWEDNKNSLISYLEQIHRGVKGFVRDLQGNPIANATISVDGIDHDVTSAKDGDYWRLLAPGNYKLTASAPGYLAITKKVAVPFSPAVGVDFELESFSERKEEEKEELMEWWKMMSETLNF

Legend:
[1] = biological target: 5-hydroxytryptamine receptor 1-E (5-HTR1E) on stably transfected HEK293 cells (human) (UniProt P28566); assay: radioligand binding; displacement and specificity: 5-HTR1E stable HEK293 cells with 30 nM [125I] NF-α1/CPE in the presence and absence of 500 nM cold NF-α1/CPE or CPB, serum-free binding medium, 3 h on ice; only the binder purified
[2] = biological target: human wild type full-length NF-α1/CPE (1–476) with a C-terminal V5 tag (human) (UniProt P16870); assay: co-IP; called pull-down assay in the paper: HEK293 cells co-transfected with 5-HTR1E-myc and CPE-V5 or its fragments, 48 h; 1 mg lysate with anti-Myc or anti-V5-conjugated agarose overnight at 4°C; immunoblot with anti-V5 or anti-Myc
[3] = biological target: human 5-HTR1E with a C-terminal Myc tag (human) (UniProt P28566); assay: as above

binding [1]: binds
Substance: Recombinant mouse NF-α1/CPE (neurotrophic factor-α1/carboxypeptidase E), unlabeled (from UniProt Q00493) (ligand)

binding [2]: binds
Substance: human 5-HTR1E with a C-terminal Myc tag (from UniProt P28566 1-365) (receptor)

binding [3]: binds
Substance: human wild type full-length NF-α1/CPE (1–476) with a C-terminal V5 tag (from UniProt P16870)
